Assay results taken from paper PMC11994402.
No constants are given. Whether binding was seen depends on the method and setting. In cells and extracts the contact can be indirect.

Molecular target: Glutathione peroxidase 4
Experiment: co-IP; GBP2 with GPX4; cells and conditions not told in the text (Supplemental Figs. 9A and B)

binding: no binding
B1: guanylate-binding protein 2 (protein, UniProt P32456 1-591)
chain: MAPEINLPGPMSLIDNTKGQLVVNPEALKILSAITQPVVVVAIVGLYRTGKSYLMNKLAGKKNGFSLGSTVKSHTKGIWMWCVPHPKKPEHTLVLLDTEGLGDIEKGDNENDSWIFALAILLSSTFVYNSMGTINQQAMDQLHYVTELTDRIKANSSPGNNSVDDSADFVSFFPAFVWTLRDFTLELEVDGEPITADDYLELSLKLRKGTDKKSKSFNDPRLCIRKFFPKRKCFVFDWPAPKKYLAHLEQLKEEELNPDFIEQVAEFCSYILSHSNVKTLSGGIPVNGPRLESLVLTYVNAISSGDLPCMENAVLALAQIENSAAVEKAIAHYEQQMGQKVQLPTETLQELLDLHRDSEREAIEVFMKNSFKDVDQMFQRKLGAQLEARRDDFCKQNSKASSDCCMALLQDIFGPLEEDVKQGTFSKPGGYRLFTQKLQELKNKYYQVPRKGIQAKEVLKKYLESKEDVADALLQTDQSLSEKEKAIEVERIKAESAEAAKKMLEEIQKKNEEMMEQKEKSYQEHVKQLTEKMERDRAQLMAEQEKTLALKLQEQERLLKEGFENESKRLQKDIWDIQMRSKSLEPICNIL
